Source: doi:10.1101/2020.07.01.179515
No constants are given. Whether binding was seen depends on the method and setting. In cells and extracts the contact can be indirect. Some results given as binding are weak or reduced against the parent protein; the word gives no strength. Tags and fused reporters may be left off the sequences shown.

Target: T1, Rps2-Flag (RPS2/uS5, endogenously C-terminally Flag-tagged) (S. cerevisiae) (UniProt P25443)
T1 sequence: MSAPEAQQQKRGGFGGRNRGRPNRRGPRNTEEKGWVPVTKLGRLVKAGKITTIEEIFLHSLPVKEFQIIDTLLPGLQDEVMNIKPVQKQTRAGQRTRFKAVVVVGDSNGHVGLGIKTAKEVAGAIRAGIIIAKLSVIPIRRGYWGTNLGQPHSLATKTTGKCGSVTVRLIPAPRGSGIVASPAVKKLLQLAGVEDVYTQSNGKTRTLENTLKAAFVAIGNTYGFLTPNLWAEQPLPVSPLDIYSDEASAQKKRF
Assay: co-IP

B1: Rps5/uS7 (protein, UniProt P26783 1-225)
chain: MSDTEAPVEVQEDFEVVEEFTPVVLATPIPEEVQQAQTEIKLFNKWSFEEVEVKDASLVDYVQVRQPIFVAHTAGRYANKRFRKAQCPIIERLTNSLMMNGRNNGKKLKAVRIIKHTLDIINVLTDQNPIQVVVDAITNTGPREDTTRVGGGGAARRQAVDVSPLRRVNQAIALLTIGAREAAFRNIKTIAETLAEELINAAKGSSTSYAIKKKDELERVAKSNR
- binding: binds
